Results as given in patent US20050026285A1 (Harvard, published 2005).

Legend:
[1] = target: FLAG-tagged TRAF2 (87-501); experiment: coimmunoprecipitation from 293T cells
FLAG-tagged TRAF3 [2] = experiment: coimmunoprecipitation from 293T cells at 300 mM instead of 137 mM NaCl
FLAG-tagged TRAF6 [3] = experiment: as above
FLAG-tagged TRAF4 [4] = experiment: as above
c-Jun/c-Fos AP-1 complex = experiment: coimmunoprecipitation from 293T cells, anti-myc IP
FLAG-tagged TRAF1 = experiment: coimmunoprecipitation from 293T cells, anti-MYC IP, anti-FLAG blot
[5] = target: FLAG-tagged TRAF2 (87-501); experiment: as above
FLAG-tagged TRAF3 [6] = experiment: as above
FLAG-tagged TRAF6 [7] = experiment: as above
FLAG-tagged TRAF2 [8] = experiment: as above
FLAG-tagged TRAF4 [9] = experiment: as above
FLAG-tagged TRAF6 [10] = experiment: summary of the coimmunoprecipitation experiments of Example 1
FLAG-tagged TRAF2 [11] = experiment: as above

Measured: binding

B1: MYC-tagged KRC tr (KRC amino acids 204-1055 with N-terminal myc epitope tag) (protein, not shown: small tags and cut ends)
chain: PSVLQKHIRSHTGERPYPCGPCGFSFKTKSNLYKHRKSHAHRIKAGLASGMGGEMYPHGLEMERIPGEEFEEPTEGESTDSEEETSATSGHPAELSPRPKQPLLSSGLYSSGSHSSSHERCSLSQSSTAQSLEDPPPFVEPSSEHPLSHKPEDTHTIKQKLALRLSERKKVIDEQAFLSPGSKGSTESGYFSRSESAEQQVSPPNTNAKSYAEIIFGKCGRIGQRTAMLTATSTQPLLPLSTEDKPSLVPLSVPRTQVIEHITKLITINEAVVDTSEIDSVKPRRSSLSRRSSMESPKSSLYREPLSSHSEKTKPEQSLLSLQHPPSTAPPVPLLRSHSMPSAACTISTPHHPFRGSYSFDDHITDSEALSRSSHVFTSHPRMLKPQPAIELPLGGEYSSEEPGPSSKDTASKPSDEVEPKESELTKKTKKGLKTKGVIYECNICGARYKKRDNYEAHKKYYCSELQIAKPISAGTHTSPEAEKSQIEHEPWSQMMHYKLGTTLELTPLRKRRKEKSLGDEEEPPAFESTKSQFGSPGPSDAARNLPLESTKSPAEPSKSVPSLEGPTGFQPRTPKPGSGSESGKERRTTSKEISVIQHTSSFEKSDSLEQPSGLEGEDKPLAQFPSPPPAPHGRSAHSLQPKLVRQPNIQVPEILVTEEPDRPDTEPEPPPKEPEKTEEFQWPQRSQTLAQLPAEKAPPKKKRLRLAEMAQSSGESSFESSVPLSRSPSQESNVSLSGSSRSASFERDDHGKAEAPDPSSDMRPKPLGTHMLTVPSHHPHAREMRRSASEQSPNVSHSAHMTETRSKSFDYGSLSLTGPSAPAPVAPPAGEAPPERRKCFLVRSPSLSRPP
binds: all assays above

These are yes or no findings as the source states them, for the method shown. Binding seen in cells or lysates may run through a third protein. A result given as binding can be weak or reduced; the word gives no strength. Sequences can lack the tags named with a protein.
